Results on one molecule are retold here after paper doi:10.1101/2024.11.25.625148.

Protein sequences, listed by entry. Tags and fused reporters are not part of them. Residues count along the entry.
UniProt Q8K2C6, residues 37-310: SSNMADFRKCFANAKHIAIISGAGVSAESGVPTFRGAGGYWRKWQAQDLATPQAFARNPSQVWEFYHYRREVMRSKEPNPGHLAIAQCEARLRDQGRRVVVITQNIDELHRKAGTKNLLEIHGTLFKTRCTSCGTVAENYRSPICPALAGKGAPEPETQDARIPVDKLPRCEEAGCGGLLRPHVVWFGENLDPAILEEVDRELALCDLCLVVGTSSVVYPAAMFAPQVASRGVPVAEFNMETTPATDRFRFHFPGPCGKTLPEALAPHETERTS

The experiment has as its target Sirt5 (mouse (endogenous in HL-1 cells and mouse myocardium)) (UniProt Q8K2C6). The experiment is described as follows: affinity purification with mass spectrometry.

Results are given in words; binding and its absence hold for the method and conditions named. Binding seen in cells or lysates may run through a third protein. Here binding means that the protein was enriched with, or labelled near, the bait; the list need not be complete.

B1: adenine nucleotide translocase 2 (ANT2) (protein, UniProt P51881 1-298)
chain: MTDAAVSFAKDFLAGGVAAAISKTAVAPIERVKLLLQVQHASKQITADKQYKGIIDCVVRIPKEQGVLSFWRGNLANVIRYFPTQALNFAFKDKYKQIFLGGVDKRTQFWRYFAGNLASGGAAGATSLCFVYPLDFARTRLAADVGKAGAEREFKGLGDCLVKIYKSDGIKGLYQGFNVSVQGIIIYRAAYFGIYDTAKGMLPDPKNTHIFISWMIAQSVTAVAGLTSYPFDTVRRRMMMQSGRKGTDIMYTGTLDCWRKIARDEGSKAFFKGAWSNVLRGMGGAFVLVLYDEIKKYT
As for B1, the binding result is “binds”.
